The results are deposited in PubChem (AID1159506; NCATS, 2015).

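Luminescence from an EWS-FLI1 target-promoter (NR0B1) reporter, set against a CMV-promoter reporter, two days after silencing single genes in TC32 Ewing sarcoma cells. Each siRNA was applied at 20 nM. A z-score of the log NR0B1-over-CMV signal, less the median of siRNAs with the same seed; more negative means a stronger specific loss of the NR0B1 reporter.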

This is part of the screen; most of the strongest results are not listed here. Sequences are the guide (antisense) strand, without overhang.

Sequence: AAAGAAACUCGCAAACUCG
gene: GBP4
seed-corrected z-score: -0.4109

Sequence: UACUGGUCAAUGAGGGUCU
gene: ACOT8
seed-corrected z-score: -0.2743

Sequence: AAUGGAUUAUCUGCUGGGC
gene: GTF2H4
seed-corrected z-score: 0.3879

Sequence: AAGGUUUCGGAUGAAGUCC
gene: IQSEC3
seed-corrected z-score: -0.4576

Sequence: UUAAUAUCCAUUUAUCAAC
gene: TNFSF12
seed-corrected z-score: 0.9121

Sequence: UUGGGUUUUCCAGUUAGAC
gene: CASP3
seed-corrected z-score: 0.2999

Sequence: UAUGAUACCAACCAGUAAG
gene: PCNX4
seed-corrected z-score: -0.005763

Sequence: UGGUUGUCUAAUCUCAAUG
gene: PIBF1
seed-corrected z-score: 0.02987

Sequence: AAGAUCUUGAUGGACAGCG
gene: FAM222A
seed-corrected z-score: 0.03108

Sequence: UUGGUCAUAGCAAAAGCCG
gene: SERPINC1
seed-corrected z-score: -1.495

Sequence: UACCGUUGAUCAAAGAACC
gene: USF3
seed-corrected z-score: 0.6978

Sequence: UUUGUUAUAUUGGUUGUAC
gene: TERF2
seed-corrected z-score: 0.3991

Sequence: UUUCGUUUUCAUCUACUCC
gene: TLN2
seed-corrected z-score: 0.3392

Sequence: AAAGUUCAAAUUUAAGCUC
gene: CTAGE5
seed-corrected z-score: 0.3789

Sequence: AAGGGCAUCGGAUAAAUCG
gene: CD99
seed-corrected z-score: -0.852

Sequence: UAGGUCUCAAUCAAAAUGG
gene: TPRG1
seed-corrected z-score: -0.03174

Sequence: UAAAUGCUGAACGCAAACC
gene: PPP3R2
seed-corrected z-score: 0.3594

Sequence: AAAUUCACAACUGGAUGUC
gene: GNL1
seed-corrected z-score: 0.9432

Sequence: UACACAACUGUAACCAACC
gene: RPS12P22
seed-corrected z-score: 0.373

Sequence: UUUGUGCACAGACCCAUCG
gene: TGM2
seed-corrected z-score: -0.5333

Sequence: UAGGCAUUUGCUGAGCACC
gene: CRCT1
seed-corrected z-score: -0.2742

Sequence: UCAGGGAUUCCAUUGUUGC
gene: FAM129B
seed-corrected z-score: 0.7368

Sequence: UAUCUUCAUAUGCACCGCG
gene: PIGM
seed-corrected z-score: 0.3543

Sequence: AAAGGUUUGAACUAUUACU
gene: ZNF664
seed-corrected z-score: -0.1307

Sequence: AAAGUCGUCAAAGGGCAUG
gene: SGK494
seed-corrected z-score: -1.036

Sequence: UUCAUGUUGGGUGUUGUGG
gene: GATAD2B
seed-corrected z-score: -0.5556

Sequence: ACUGUUUUUGCUGACCUGU
gene: KREMEN2
seed-corrected z-score: 0.2553

Sequence: UAUUAAUGAGGUGAUAUUG
gene: KCTD5
seed-corrected z-score: 0.06571

Sequence: UAAAUUACGUGUGAAAUUG
gene: ATOH8
seed-corrected z-score: 0.2025

Sequence: UUCAGCUGUAGCAUCUUUG
gene: ZPR1
seed-corrected z-score: -0.3369

Sequence: AAACAGCAGAACUAGAUGC
gene: LOR
seed-corrected z-score: 1.715

Sequence: UAAGGAAUCAGUAGAGCUG
gene: LOC388942
seed-corrected z-score: 0.08545

Sequence: AUAGUAGAGGGUGAAGUAC
gene: OTOP3
seed-corrected z-score: 1.918

Sequence: UGGAGUCCCAGAACAGUGC
gene: MPZ
seed-corrected z-score: -1.879

Sequence: UCUCGAUCCACAUAUUCGC
gene: DOCK1
seed-corrected z-score: 0.09689

Sequence: UGCGGAUGUAGUUAACUCC
gene: JAM3
seed-corrected z-score: 0.6663

Sequence: AUCCUUAGAGACAAGGGCC
gene: SLC22A17
seed-corrected z-score: 0.6821

Sequence: UCUGUGCUCAGAAUUCUCC
gene: NPY4R
seed-corrected z-score: -0.8998

Sequence: UCUUCAUUAAACUGCACCG
gene: WDR83
seed-corrected z-score: -0.01927

Sequence: UUGUCGUGCACAUUCUUGG
gene: CORO2B
seed-corrected z-score: -0.4751

The first 2 entries again:

AAAGAAACUCGCAAACUCG against GBP4 gave seed-corrected z-score -0.4109.
UACUGGUCAAUGAGGGUCU against ACOT8 gave seed-corrected z-score -0.2743.